Assay results published in the supplement of paper PMC10077471.
Over roughly 1,900 compounds, “excess over highest single agent (ExcessHSA) synergy score, 6x6 matrix” has its median near -83; the lowest 2% begin near -370. The list shows a part of the results.

System: NCI-H446
Assay: excess over highest single agent (ExcessHSA) synergy score, 6x6 matrix; higher = less synergy (more negative = stronger synergy)
Conditions: 72 h; CellTiter-Glo viability

SMILES	excess over highest single agent
CN1CCC(=C2c3ccccc3CCc3sccc32)CC1 + Cc1sc2c(c1C)C(c1ccc(Cl)cc1)=N[C@@H](CC(=O)OC(C)(C)C)c1nnc(C)n1-2 [NCGC00250412-19]	-177
CCN(CC)CCOc1ccc(C(=C(Cl)c2ccccc2)c2ccccc2)cc1 + Cc1sc2c(c1C)C(c1ccc(Cl)cc1)=N[C@@H](CC(=O)OC(C)(C)C)c1nnc(C)n1-2 [NCGC00250412-19]	-103
COc1ccc2cc(-c3nc(-c4ccc([S+](C)[O-])cc4)[nH]c3-c3ccncc3)ccc2c1 (stereo unspecified) + Cc1sc2c(c1C)C(c1ccc(Cl)cc1)=N[C@@H](CC(=O)OC(C)(C)C)c1nnc(C)n1-2 [NCGC00250412-19]	-100
CCCCCOC(=O)Nc1nc(=O)n([C@@H]2O[C@H](C)[C@@H](O)[C@H]2O)cc1F + Cc1sc2c(c1C)C(c1ccc(Cl)cc1)=N[C@@H](CC(=O)OC(C)(C)C)c1nnc(C)n1-2 [NCGC00250412-19]	3.95
CC(C)=CCC/C(C)=C/CC/C(C)=C/CSc1ccccc1C(=O)O + Cc1sc2c(c1C)C(c1ccc(Cl)cc1)=N[C@@H](CC(=O)OC(C)(C)C)c1nnc(C)n1-2 [NCGC00250412-19]	93.2
Cc1cnc(Nc2ccc(F)cc2Cl)nc1-c1c[nH]c(C(=O)N[C@H](CO)c2cccc(Cl)c2)c1 + Cc1sc2c(c1C)C(c1ccc(Cl)cc1)=N[C@@H](CC(=O)OC(C)(C)C)c1nnc(C)n1-2 [NCGC00250412-19]	35.4
Cc1cccc2c1CC[C@H](CN1CCC(c3c(Cl)cccc3Cl)CC1)C[C@@H]2O + Cc1sc2c(c1C)C(c1ccc(Cl)cc1)=N[C@@H](CC(=O)OC(C)(C)C)c1nnc(C)n1-2 [NCGC00250412-19]	-49.6
O=C1CCc2ccc(OCCCCN3CCN(c4cccc(Cl)c4Cl)CC3)cc2N1 + Cc1sc2c(c1C)C(c1ccc(Cl)cc1)=N[C@@H](CC(=O)OC(C)(C)C)c1nnc(C)n1-2 [NCGC00250412-19]	-98.6
Cc1ccc(S(=O)(=O)Nc2cc(Cl)ccc2C(=O)Nc2nc(-c3ccccc3)cs2)cc1 + Cc1sc2c(c1C)C(c1ccc(Cl)cc1)=N[C@@H](CC(=O)OC(C)(C)C)c1nnc(C)n1-2 [NCGC00250412-19]	214
CCCCCCCCCCCC1=C(O)C(=O)C=C(O)C1=O + Cc1sc2c(c1C)C(c1ccc(Cl)cc1)=N[C@@H](CC(=O)OC(C)(C)C)c1nnc(C)n1-2 [NCGC00250412-19]	-98.3
NCCCC(N)(C(=O)O)C(F)F (stereo unspecified) + Cc1sc2c(c1C)C(c1ccc(Cl)cc1)=N[C@@H](CC(=O)OC(C)(C)C)c1nnc(C)n1-2 [NCGC00250412-19]	-46.7

Two neighbouring entries already listed, for reference:
SMILES	excess over highest single agent
Cc1cccc2c1CC[C@H](CN1CCC(c3c(Cl)cccc3Cl)CC1)C[C@@H]2O + Cc1sc2c(c1C)C(c1ccc(Cl)cc1)=N[C@@H](CC(=O)OC(C)(C)C)c1nnc(C)n1-2 [NCGC00250412-19]	-49.6
O=C1CCc2ccc(OCCCCN3CCN(c4cccc(Cl)c4Cl)CC3)cc2N1 + Cc1sc2c(c1C)C(c1ccc(Cl)cc1)=N[C@@H](CC(=O)OC(C)(C)C)c1nnc(C)n1-2 [NCGC00250412-19]	-98.6
